# From publication PMC11286534
# The chains behind the UniProt entries cited, without tags or fusion partners.
# UniProt Q96LC9: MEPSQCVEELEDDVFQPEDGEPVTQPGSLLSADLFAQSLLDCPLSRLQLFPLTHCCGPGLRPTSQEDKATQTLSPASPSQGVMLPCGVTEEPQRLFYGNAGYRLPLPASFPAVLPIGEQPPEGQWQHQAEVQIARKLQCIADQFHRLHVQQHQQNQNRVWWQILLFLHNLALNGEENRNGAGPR
# No constants are given. Whether binding was seen depends on the method and setting. In cells and extracts the contact can be indirect. Some results given as binding are weak or reduced against the parent protein; the word gives no strength.
# Biological target: BMF, endogenous in HCC1171 cells (human (endogenous in HCC1171)) (UniProt Q96LC9)
# Assay: co-IP; anti-BMF or anti-BIM on 200 µg of M-PER lysate of HCC1171 cells, 3 h on ice, Protein G Dynabeads, three washes; cells treated with JDQ443 (400 nM), IAG933 (600 nM) or both
substance,measurement,value
"BCLxL (BCL2L1), endogenous in HCC1171 cells (from UniProt Q07817-1 1-233)",binding,binds
